The list is a part of this screen's results and no random one: it gathers tests that were run many times, whatever their T/C, doses with no T/C, and many T/C values between a quarter and a half above the control. Further doses and runs are listed elsewhere. T/C gives the treated animals as a percentage of the vehicle group. Some doses have a count of surviving animals in place of a T/C: the source holds a T/C of zero for them, seemingly a mark for toxic or unscored doses. Some doses without a T/C left all or most animals alive at the check, yet need not have been tolerated: survival well below the control is almost never listed, so the zero probably covers shortened survival too. Survivors were counted at the toxicity check, usually on the fifth day, unless a day is given; later deaths do not show. Schedule codes are those of the source, read here as Q, the interval in days (D) or hours (H), X, the number of doses. Some doses were run more than once; the results are listed from low to high. For survival time, this PubChem deposit counts one and a half times the control or more as active, and values a quarter to a half above the control carry no call in these data; other NCI protocols may use other cut-offs. Some T/C values carry the count of animals alive at the toxicity check (mostly the fifth day); where none is given, no animal had died by that day.
Tested on: BDF1 mice, P388 leukemia ip, median survival T/C
Test: NCI In Vivo Anticancer Drug Screen. Data for tumor model P388 Leukemia (intraperitoneal) in B6D2F1 (BDF1) mice
Conditions: T/C endpoint: median survival time, higher T/C = longer survival
In short: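 Read-out is survival of treated animals expressed relative to the vehicle group, as a T/C ratio.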

Q: `COC(=O)[C@@]12OC[C@]34[C@H]([C@@H](O)[C@@H]1O)[C@@]1(C)CC(=O)C(O)=C(C)[C@@H]1C[C@H]3OC(=O)[C@H](OC(=O)/C=C(\C)C(C)C)[C@@H]24` was tested. Which T/C (dose: 0.03 mg/kg/injection, schedule: Q01DX009 (ip), vehicle: saline with Tween-80) did it give?
A: 137 % of control

Q: And the T/C (dose: 0.03 mg/kg/injection, schedule: Q03HX024 (ip), vehicle: other)?
A: 134 % of control

Q: And the T/C (dose: 0.03 mg/kg/injection, schedule: Q03HX024 (ip), vehicle: saline + alcohol)?
A: 132 and 145 % of control

Q: What about the T/C (dose: 0.03 mg/kg/injection, schedule: Q03HX024 (ip), vehicle: saline with Tween-80) of the same compound?
A: 126 % of control

Q: And the T/C (dose: 0.06 mg/kg/injection, schedule: Q01DX009 (ip), vehicle: saline + alcohol, evaluated on day 35)?
A: 151 % of control

Q: What about the T/C (dose: 0.06 mg/kg/injection, schedule: Q01DX009 (ip), vehicle: saline + alcohol, evaluated on day 60) of the same compound?
A: 146, 149, 156 % of control

Q: What about the T/C (dose: 0.06 mg/kg/injection, schedule: Q01DX009 (ip), vehicle: saline with Tween-80, evaluated on day 30) of the same compound?
A: 149 % of control

Q: And the T/C (dose: 0.06 mg/kg/injection, schedule: Q01DX009 (ip), vehicle: saline with Tween-80, evaluated on day 60)?
A: 143 % of control

Q: What about the T/C (dose: 0.06 mg/kg/injection, schedule: Q01DX009 (ip), vehicle: saline) of the same compound?
A: 125 % of control

Q: And the T/C (dose: 0.06 mg/kg/injection, schedule: Q03HX016 (ip), vehicle: saline + alcohol)?
A: 148 % of control

Q: What about the T/C (dose: 0.06 mg/kg/injection, schedule: Q03HX016 (ip), vehicle: saline with Tween-80) of the same compound?
A: 133 % of control

Q: What about the T/C (dose: 0.06 mg/kg/injection, schedule: Q03HX024 (ip), vehicle: saline with Tween-80) of the same compound?
A: 140 % of control

Q: And the T/C (dose: 0.12 mg/kg/injection, schedule: Q01DX009 (ip), vehicle: saline)?
A: 133 % of control

Q: What about the T/C (dose: 0.12 mg/kg/injection, schedule: Q03HX008 (ip), vehicle: saline with Tween-80) of the same compound?
A: 125 % of control

Q: And the T/C (dose: 0.12 mg/kg/injection, schedule: Q03HX016 (ip), vehicle: saline with Tween-80)?
A: 140 % of control

Q: And the T/C (dose: 0.13 mg/kg/injection, schedule: Q03HX008 (ip), vehicle: saline + alcohol)?
A: 146 % of control

Q: And the T/C (dose: 0.25 mg/kg/injection, schedule: Q01DX009 (ip), vehicle: saline + alcohol, evaluated on day 35)?
A: 191 % of control

Q: And the T/C (dose: 0.25 mg/kg/injection, schedule: Q01DX009 (ip), vehicle: saline + alcohol, evaluated on day 60)?
A: 173, 174, 176 % of control

Q: What about the T/C (dose: 0.25 mg/kg/injection, schedule: Q01DX009 (ip), vehicle: saline) of the same compound?
A: 141 % of control

Q: And the T/C (dose: 0.25 mg/kg/injection, schedule: Q03HX008 (ip), vehicle: saline + alcohol)?
A: 147 % of control [9 of 10 alive]

Q: What about the T/C (dose: 0.25 mg/kg/injection, schedule: Q03HX008 (ip), vehicle: saline with Tween-80) of the same compound?
A: 137 % of control [9 of 10 alive]

Q: And the survivor count (dose: 0.25 mg/kg/injection, schedule: Q03HX016 (ip), vehicle: saline with Tween-80)?
A: 2 of 10

Q: And the survivor count (dose: 0.25 mg/kg/injection, schedule: Q03HX024 (ip), vehicle: other)?
A: 3 of 10

Q: And the survivor count (dose: 0.25 mg/kg/injection, schedule: Q03HX024 (ip), vehicle: saline + alcohol)?
A: 6 of 10 and 7 of 10

Q: And the T/C (dose: 0.5 mg/kg/injection, schedule: Q01DX009 (ip), vehicle: saline + alcohol, evaluated on day 35)?
A: 186 % of control

Q: And the T/C (dose: 0.5 mg/kg/injection, schedule: Q01DX009 (ip), vehicle: saline + alcohol, evaluated on day 60)?
A: 173, 177, 186 % of control

Q: What about the survivor count (dose: 0.5 mg/kg/injection, schedule: Q03HX008 (ip), vehicle: saline + alcohol) of the same compound?
A: 3 of 10

Q: And the survivor count (dose: 0.5 mg/kg/injection, schedule: Q03HX008 (ip), vehicle: saline with Tween-80)?
A: 0 of 10

Q: What about the survivor count (dose: 0.5 mg/kg/injection, schedule: Q03HX016 (ip), vehicle: saline + alcohol) of the same compound?
A: 3 of 10

Q: And the survivor count (dose: 0.5 mg/kg/injection, schedule: Q03HX016 (ip), vehicle: saline with Tween-80)?
A: 0 of 10

Q: What about the survivor count (dose: 0.5 mg/kg/injection, schedule: Q03HX024 (ip), vehicle: other) of the same compound?
A: 0 of 10

Q: And the survivor count (dose: 0.5 mg/kg/injection, schedule: Q03HX024 (ip), vehicle: saline + alcohol)?
A: 0 of 10 and 3 of 10

Q: And the survivor count (dose: 0.5 mg/kg/injection, schedule: Q03HX024 (ip), vehicle: saline with Tween-80)?
A: 1 of 10

Q: What about the T/C (dose: 1.0 mg/kg/injection, schedule: Q01DX009 (ip), vehicle: saline + alcohol, evaluated on day 35) of the same compound?
A: 204 % of control

Q: And the T/C (dose: 1.0 mg/kg/injection, schedule: Q01DX009 (ip), vehicle: saline + alcohol, evaluated on day 60)?
A: 194, 203, 217 % of control

Q: And the T/C (dose: 1.0 mg/kg/injection, schedule: Q01DX009 (sc), vehicle: saline + alcohol)?
A: 126 % of control

Q: What about the survivor count (dose: 1.0 mg/kg/injection, schedule: Q03HX008 (ip), vehicle: saline + alcohol) of the same compound?
A: 0 of 10

Q: What about the survivor count (dose: 1.0 mg/kg/injection, schedule: Q03HX008 (ip), vehicle: saline with Tween-80) of the same compound?
A: 0 of 10

Q: And the survivor count (dose: 1.0 mg/kg/injection, schedule: Q03HX016 (ip), vehicle: saline + alcohol)?
A: 0 of 10

Q: What about the survivor count (dose: 1.0 mg/kg/injection, schedule: Q03HX016 (ip), vehicle: saline with Tween-80) of the same compound?
A: 0 of 10

Q: What about the T/C (dose: 1.08 mg/kg/injection, schedule: Q04DX003 (ip), vehicle: saline + alcohol) of the same compound?
A: 148 % of control

Q: What about the survivor count (dose: 2.0 mg/kg/injection, schedule: Q01DX009 (ip), vehicle: other) of the same compound?
A: 6 of 10
